# ± gives the standard deviation of the averaged measurements. Only a part is listed here, and it is no random draw.
# Experiments:
# IMR-90 = assay: relative cell viability (ATPlite) vs untreated control (fraction); higher = less toxic; details: 1 µM; 72 h
# K562 [1] = assay: as above; details: 1 µM; 72 h
# K562 [2] = assay: relative cell viability (ATPlite) vs untreated control, with imatinib (fraction); higher = less toxic; details: 1 µM; 72 h; imatinib 0.125 µM
compound,measurement,setting,value
O=C1Nc2ccc(-c3cccnc3)cc2/C1=C/c1ccc[nH]1 [JAK3 Inhibitor VI],relative cell viability,IMR-90,1.16 ± 0.11
same,relative cell viability,K562 [1],0.776 ± 0.079
same,relative cell viability,K562 [2],0.644 ± 0.051
